# Results of single-concentration screens

By UniProt entry, the sequences of proteins in these tests, tags left out. Residues count along the entry.
UniProt P9WFT3, whole entry: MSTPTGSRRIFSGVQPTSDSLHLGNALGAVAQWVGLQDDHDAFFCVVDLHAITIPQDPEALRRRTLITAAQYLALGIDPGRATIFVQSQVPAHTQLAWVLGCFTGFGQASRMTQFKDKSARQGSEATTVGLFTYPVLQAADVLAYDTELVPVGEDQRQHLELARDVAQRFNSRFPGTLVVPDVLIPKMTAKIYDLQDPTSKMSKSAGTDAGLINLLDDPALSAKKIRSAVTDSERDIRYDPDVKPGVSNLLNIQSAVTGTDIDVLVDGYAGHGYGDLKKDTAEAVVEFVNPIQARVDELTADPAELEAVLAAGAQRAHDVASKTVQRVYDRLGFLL
UniProt Q8IDJ8, 1-583: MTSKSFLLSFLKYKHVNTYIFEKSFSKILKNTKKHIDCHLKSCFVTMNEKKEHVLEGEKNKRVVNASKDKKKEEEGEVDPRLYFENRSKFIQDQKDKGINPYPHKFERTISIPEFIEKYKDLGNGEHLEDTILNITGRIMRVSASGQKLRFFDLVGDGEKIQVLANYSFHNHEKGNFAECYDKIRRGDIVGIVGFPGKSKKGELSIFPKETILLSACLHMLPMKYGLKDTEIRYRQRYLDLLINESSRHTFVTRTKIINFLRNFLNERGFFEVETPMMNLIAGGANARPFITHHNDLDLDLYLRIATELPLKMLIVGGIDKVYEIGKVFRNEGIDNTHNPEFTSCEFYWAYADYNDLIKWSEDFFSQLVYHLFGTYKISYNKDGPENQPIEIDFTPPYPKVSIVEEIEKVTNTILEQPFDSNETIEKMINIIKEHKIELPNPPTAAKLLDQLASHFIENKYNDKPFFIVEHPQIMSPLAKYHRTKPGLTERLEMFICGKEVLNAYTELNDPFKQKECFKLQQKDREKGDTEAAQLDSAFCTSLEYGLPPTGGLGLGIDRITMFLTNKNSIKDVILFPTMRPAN
UniProt P9WPC5, whole entry: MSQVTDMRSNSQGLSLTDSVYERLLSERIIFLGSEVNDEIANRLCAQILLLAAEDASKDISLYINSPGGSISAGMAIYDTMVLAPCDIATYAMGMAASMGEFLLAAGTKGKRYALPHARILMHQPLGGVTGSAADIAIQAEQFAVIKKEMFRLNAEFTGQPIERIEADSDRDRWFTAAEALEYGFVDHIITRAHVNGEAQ
UniProt P9WPC3, whole entry partner: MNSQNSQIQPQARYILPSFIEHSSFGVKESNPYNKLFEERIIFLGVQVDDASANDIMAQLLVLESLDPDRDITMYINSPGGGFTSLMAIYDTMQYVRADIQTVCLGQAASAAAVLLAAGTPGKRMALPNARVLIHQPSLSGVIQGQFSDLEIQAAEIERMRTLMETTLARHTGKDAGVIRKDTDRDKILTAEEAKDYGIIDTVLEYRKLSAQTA

Measurements from “University of Dundee, Small-Polar-MMV Screening Library” (2021), ChEMBL document CHEMBL3988442.

A: 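Enzyme assay of tryptophanyl-tRNA synthetase; the read-out is not stated. Target: Tryptophan-tRNA ligase, Mycobacterium tuberculosis (UniProt P9WFT3). Tested at 10 µM. Higher most likely means stronger inhibition; the record gives no direction and few retests gave an IC50. About 65,000 compounds were tested under these conditions; 0.098% (about 64) showed 50% or more at least once.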
B: 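Lysine-tRNA ligase, Plasmodium falciparum 3D7 (UniProt Q8IDJ8). Enzyme assay of the cytosolic lysyl-tRNA synthetase in 384-well plates, read by luminescence. Compounds at 30 µM. Direction is inferred from only a few compounds that gave an IC50; most scored high, so higher reads as stronger inhibition. Of about 69,000 compounds tested this way, about 49 (0.071%) reached 50% or more in at least one test.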
C: 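Protease assay of ClpP1P2, read by the AMC dye that it sets free. Target: ClpP1P2, Mycobacterium tuberculosis (UniProt P9WPC5 and UniProt P9WPC3). Compounds at 50 µM. Direction is inferred from only a few compounds that gave an IC50; most scored high, so higher reads as stronger inhibition. Most other retested compounds had strongly negative values. Size under these conditions: about 69,000 compounds, about 10 of them at 50% or above in at least one test.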

The filed quantity is “Percent Effect” (%).
How 0% and 100% were set is not recorded. Most values in the screen are low, and negative values occur.
This is an unselected part of the compounds tested.

SMILES: Cn1cc(C2CCCN2C(=O)CCn2ccc3ccccc32)cn1 (configuration not stated)
A: -5.31
B: -0.2117
C: -2.059

SMILES: CN(C)C(=O)c1cncnc1-c1ccc(CNC(=O)C2CCCO2)cc1 (configuration not stated)
A: 59.07
B: -0.2863
C: 3.588

SMILES: Cc1ccccc1-n1ccnc1S(=O)(=O)Cc1nsc(N(C)C)n1
A: -0.2463
B: -0.4062
C: -5.012

SMILES: Cc1cn2c(=O)c(-c3ccnc(N[C@@H]4CCOC4)n3)cnc2s1
B: 2.651
C: -24.52

SMILES: COCC1CN(C(=O)Nc2ccc(Cl)cc2Cl)CCO1 (configuration not stated)
A: -2.801
B: 0.4891
C: 1.982

SMILES: CNc1ncc(C(=O)N2CCC(CCc3ccccc3)CC2)cn1
A: 3.997
B: -2.058
C: 27.97

SMILES: CNC(=O)N1CCC2(CC1)CN(C)Cc1cc(F)ccc12
A: -0.8721
B: 4.617
C: 13.4

SMILES: CCCC(=O)NCCc1nc2cc(-c3ccc(OC)cc3)ncn2n1
A: -4.749
B: 1.047
C: -13.44

SMILES: CCc1ccc(CNC(=O)N2CCN(Cc3cc(C)on3)CC2)s1
A: 2.855
B: 1.237
C: -28.07

SMILES: Cc1nc(C)n(CC2CN(Cc3cscn3)CCO2)n1 (configuration not stated)
A: 4.368
B: 1.481
C: -16.76

SMILES: CC(C)n1c(=O)c2ccccc2n(CCN(C)C)c1=O
A: 7.074
B: 5.502
C: 8.629

SMILES: C1CCN(Cc2nnn3c2CN(CC2CC2)CCC3)C1
A: 3.614
B: -3.022
C: -11.47

SMILES: Cc1cc(C)n(CC2CN(CC3CCCC3)CCO2)n1 (configuration not stated)
A: 0.3895
B: 0.03368
C: -9.053

SMILES: O=C(NCCc1noc(-c2ccccn2)n1)NCC1CCCC1
A: -2.694
B: 3.816
C: -1.028

SMILES: O=C(c1cnccn1)N1CCCC(Cc2cccc3ncccc23)C1 (configuration not stated)
B: 3.873
C: -9.839

SMILES: O=C(Nc1cc(Cl)ccn1)c1nc(N2CCCC2)ncc1Cl
A: -5.449
B: 3.666
C: 5.232

SMILES: Cc1noc(C)c1-c1cc(CCC2CN(C(=O)C(C)C)CCO2)ncn1 (configuration not stated)
A: -8.047
B: 3.283
C: -18.96

SMILES: Cc1noc(C)c1CCC(=O)NCC1(O)CCN(c2ccccn2)C1 (configuration not stated)
A: -3.473
B: 0.6723
C: -3.6

SMILES: Cc1ccc(C(=O)O)cc1CNC(=O)CN1CC(C)(C)[C@@](C)(O)C1
A: -7.529
B: 4.692
C: -13.8

SMILES: O=C(C1CCCCN1Cc1nc(-c2ccco2)no1)N1CCCC1 (configuration not stated)
A: -1.652
B: -2.89
C: 5.037

SMILES: Cc1nccn1-c1ccc(NC(=O)C2CCCN2CC2CC2)cc1 (configuration not stated)
A: 1.769
B: -2.179
C: -5.101

SMILES: c1cnc(N2CCOCC3(CN(Cc4cc[nH]n4)CCO3)C2)nc1 (configuration not stated)
A: 3.738
B: -0.2728
C: -7.213

SMILES: Cc1ccc(CNC(=O)C2c3c(ncn3C(C)C)CCN2S(C)(=O)=O)o1 (configuration not stated)
A: -0.3236
B: 5.785
C: -4.414

SMILES: CCN1C(=O)CC[C@@H]2[C@H]1CCN2C(=O)Cc1cccc(OC)c1
A: 2.607
B: 4.501
C: -2.193

SMILES: Cc1cc(C(=O)NC(C)c2nnn[nH]2)c2cccc(C)c2n1 (configuration not stated)
A: 4.744
B: 6.976
C: 5.779

SMILES: COCCC(=O)NCC1Cn2nnc(-c3cccc(F)c3)c2CO1 (configuration not stated)
A: -1.79
B: 2.164
C: -18.07

Some entries from above, unchanged:

- O=C(c1cnccn1)N1CCCC(Cc2cccc3ncccc23)C1 (configuration not stated) | B: 3.873%; C: -9.839%
- Cc1cn2c(=O)c(-c3ccnc(N[C@@H]4CCOC4)n3)cnc2s1 | B: 2.651%; C: -24.52%
- O=C(NCCc1noc(-c2ccccn2)n1)NCC1CCCC1 | A: -2.694%; B: 3.816%; C: -1.028%